Results deposited as PubChem BioAssay AID504786 (Drosophila RNAi Screening Center, 2011)
Purpose: 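Knock-downs reducing HIF reporter induction by the iron chelator DFO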 (primary screen). Cell system: Drosophila S2 cells with a stable HIF luciferase reporter. Reagent: long dsRNA against Drosophila genes, about 0.2 µg dsRNA per well of a 384-well plate. Time to read-out: three days of knock-down, then 20 h of DFO before reading. Conditions: desferrioxamine (DFO) at 100 µM, an iron chelator that mimics hypoxia, for 20 h. Measurement: 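HIF reporter luminescence in cells given 100 µM DFO for 20 h, using the mouse ldh-a hypoxia-response element, scored as per-plate z-scores; higher means greater loss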. Direction: z-score: higher = stronger loss of HIF reporter signal.
The deposit covers about 21,000 reagents; below is a random part of those with a known target gene and a result. 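Primary screen; positive scores mean lost reporter signal, so the sign may be inverted from the usual convention.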 Reagents against one gene are numbered here. A plus sign joins genes that one reagent is predicted to hit. Not all columns of the deposit are shown.

gene	reagent	z-score, replicate 1	z-score, replicate 2	z-score, replicate 3
DJ-1alpha	1	-0.2	-1	
r-l	1	-0.3	-0.3	0.2
CG15547	1	0.2	0.1	
Pex11c	1	-0.4	-0.6	
CG10338	1	-0.3	0	
CG6674	1	-0.1	0	
CG31068	1	-0.1	-0.3	
CG33791 + CG18170	1	-0.4	-0.3	
CG33791 + CG18170	2	-0.3	-1	
CG8004	1	-0.2	-0.4	
Gr98a	1	0.6	-0.2	
CG14422	1	-0.3	-0.7	
Cpes	1	0.3	3.1	
puml	1	-0.3	-0.5	
CG3916	1	-0.2	0.1	
Hakai	1	-0.5	-0.5	
dyl	1	-0.4	-0.6	
dyl	2	-0.1	-0.5	
CG30484	1	-0.2	-0.1	
CG18262	1	0	-0.3	
CG14315	1	-0.4	-0.2	
CG33301	1	-0.1	-0.3	
Gk1	1	-0.3	-0.4	
Gk1	2	-0.3	0	
Src42A	1	0	-0.6	
CG17304 (retired record)	1	4.1	4.7	
CG33981 + fab1	1	-0.3	-0.5	
CG6927	1	0	-0.2	

12 entries from above, ordered by “z-score, replicate 1”, highest first:
gene	reagent	z-score, replicate 1	z-score, replicate 2	z-score, replicate 3
Cpes	1	0.3	3.1	
CG18262	1	0	-0.3	
dyl	2	-0.1	-0.5	
CG33301	1	-0.1	-0.3	
CG3916	1	-0.2	0.1	
CG30484	1	-0.2	-0.1	
CG14422	1	-0.3	-0.7	
puml	1	-0.3	-0.5	
Gk1	1	-0.3	-0.4	
dyl	1	-0.4	-0.6	
CG14315	1	-0.4	-0.2	
Hakai	1	-0.5	-0.5	

Further results:
gene	reagent	z-score, replicate 1	z-score, replicate 2	z-score, replicate 3
CG9168	1	-0.2	0	
Spn53F	1	-0.3	-0.6	
CG32812	1	-0.3	-0.4	
puc	1	0.6	0.5	
Trxr1	1	-0.4	-0.7	
scaf	1	-0.3	0.5	
CG14113	1	-0.2	-0.6	
spn-F	1	2.8	2.3	
Jon65Ai	1	-0.4	-0.6	
Rpn9	1	-0.2	-0.4	
ND-30	1	0.3	0.1	
CG16903	1	0.2	1.1	
babo	1	-0.3	-0.1	
GstZ2	1	-0.4	-0.4	
Su(z)12	1	-0.1	-0.2	
lwr	1	-0.5	-0.6	
CG31921	1	-0.4	0.2	
Xport-A + Xport-B	1	-0.2	-0.7	
CG17329	1	3.3	-0.1	
G9a	1	-0.3	-0.4	
CG34263	1	-0.4	-0.2	
DIP-epsilon	1	0.3	-0.2	
DIP-epsilon	2	0.2	0.3	
CG8642	1	-0.3	-0.4	
Glyp	1	-0.5	-0.4	
CG15201	1	-0.2	-0.6	
Sdr	1	-0.3	-0.3	
CG3744	1	0	1.2	
CG7646	1	-0.1	-0.3	
CG10562	1	-0.3	0.2	
nkt	1	-0.3	-0.3	
LysS	1	-0.4	-0.9	
CG8072	1	-0.1	-0.5	
gukh	1	-0.1	0.1	
gukh	2	-0.6	-0.1	
gukh	3	-0.1	-0.4	
clos	1	-0.3	-0.3	
clos	2	-0.3	-0.4	
clos	3	-0.3	0	
NdufV3	1	-0.2	0.2	
CG42780	1	-0.3	-0.2	
mRpL14	1	0.8	0.5	
CG13807	1	-0.3	-0.5	
